In patent publication US7238213B2, “Cell-based assays employing voltage and calcium dyes” (priority 2001, dated 2007):

Assays:
[1] = Quenching efficiency of dye quenchers on voltage dye fluorescence, cell-free solution; conditions: for Quenching Efficiency Residual F (k): HLB30602 10 μM, quencher dye 0.5 g/L; for Quenching Efficiency F0/F: fluorescence of HLB30602 10 μM in absence/presence of quencher dye 0.5 g/L
[2] = Concentration-dependent quenching of extracellular fluorescence (Stern-Volmer fit)

Molecule | Quenching Efficiency Residual F (k) [1] | Quenching Efficiency F0/F [1] | half-quenching concentration ([2]; FIG. 18) | half-quenching concentration ([2]; FIG. 18, converted from g/L)
CCN(CC)c1ccc(C(=C2C=CC(=[N+](CC)Cc3cccc(S(=O)(=O)[O-])c3)C=C2)c2ccc(N(CC)Cc3cccc(S(=O)(=O)[O-])c3)cc2)cc1.[Na+] [Acid Violet 17] | 6.90 k | 304 |  | 
Nc1c(N=Nc2ccc([N+](=O)[O-])cc2)c(S(=O)(=O)[O-])cc2cc(S(=O)(=O)[O-])cc(O)c12.[Na+].[Na+] [Nitro Red] | 62.10 k | 34 |  | 
CC1=CC(=C(c2ccc(N)c(C)c2)c2ccc(N)c(C)c2)C=CC1=N.Cl [New Fuchsin] | 3.40 k | 618 |  | 
CCN(CC)c1ccc2nc3ccc(N)cc3[n+](-c3ccccc3)c2c1.[Cl-] [Methylene Violet 3Rax] | 87.40 k | 24 |  | 
Cc1cc(-c2ccc(/N=N/c3c(S(=O)(=O)O)cc4cc(S(=O)(=O)O)cc(N)c4c3O)c(C)c2)ccc1/N=N/c1c(S(=O)(=O)O)cc2cc(S(=O)(=O)O)cc(N)c2c1O [Trypan Blue (Fluka), Trypan Blue] | 26.10 k | 80 |  | 
Cc1cc(-c2ccc(/N=N/c3ccc4c(S(=O)(=O)O)cc(S(=O)(=O)O)c(N)c4c3O)c(C)c2)ccc1/N=N/c1ccc2c(S(=O)(=O)O)cc(S(=O)(=O)O)c(N)c2c1O [evans blue] |  |  | 0.38 g/L | 0.34 mM
Cc1cc(C2(c3cc(C)c(O)c(Br)c3)OS(=O)(=O)c3ccccc32)cc(Br)c1O [Bromocresol Purple] | 115.60 k | 18 |  | 
Sulfonazo II | 98.70 k | 21 |  | 
C[N+](C)=c1ccc2nc3c(ccc4ccccc43)oc-2c1.[Cl-] [MELDOLA'S BLUE] | 2.10 k | 1000 |  | 
O=S1(=O)OC(c2ccc(O)c(Cl)c2)(c2ccc(O)c(Cl)c2)c2ccccc21 [Chlorophenol Red] | 62.40 k | 34 |  | 
CC(=O)Nc1ccc(S(=O)(=O)[O-])c2cc(S(=O)(=O)[O-])c(N=Nc3ccc(N=Nc4ccc(S(=O)(=O)[O-])cc4)c4ccc(S(=O)(=O)[O-])cc34)c(O)c12.[Na+].[Na+].[Na+].[Na+] [Brilliant Black BN] | 19.30 k | 109 |  | 
O=S1(=O)OC(c2cc(Br)c(O)c(Br)c2)(c2cc(Br)c(O)c(Br)c2)c2ccccc21 [Bromophenol Blue] | 44.90 k | 47 |  | 
DIAZINE BLACK | 9.30 k | 226 |  | 
O=S1(=O)OC(c2cc(Cl)c(O)c(Br)c2)(c2cc(Cl)c(O)c(Br)c2)c2ccccc21 [Bromochlorophenol Blue] | 421.00 k | 5 |  | 
O=S(=O)([O-])c1cccc(N=Nc2ccc(N=Nc3ccc(Nc4ccccc4)c4c(S(=O)(=O)[O-])cccc34)c3ccccc23)c1.[Na+].[Na+] [Acid Blue 113] | 112.50 k | 19 |  | 
Cc1cc(C2(c3cc(C)c(O)c(CN(CC(=O)O)CC(=O)O)c3)OS(=O)(=O)c3ccccc32)cc(CN(CC(=O)O)CC(=O)O)c1O [XYLENOL ORANGE] | 164.90 k | 13 |  | 
Cc1cc(O)c(C(C)C)cc1C1(c2cc(C(C)C)c(O)cc2C)OS(=O)(=O)c2ccccc21 [Thymol Blue] | 699.00 k | 3 |  | 
O=c1c(Br)cc2c(-c3ccccc3S(=O)(=O)O)c3cc(Br)c(O)c(O)c3oc-2c1O [Bromopyrogallol Red] | 31.60 k | 66 |  | 
Nitrazine Yellow | 59.80 k | 35 |  | 
Cc1cc(-c2ccc(/N=N/c3c(S(=O)(=O)O)cc4cc(S(=O)(=O)O)cc(N)c4c3O)c(C)c2)ccc1/N=N/c1c(S(=O)(=O)O)cc2cc(S(=O)(=O)O)cc(N)c2c1O [HLB30702 (Trypan Blue), Trypan Blue] | 5.50 k | 382 |  | 
O=S(=O)([O-])c1cc(O)c2c(/N=N/c3ccc(Nc4ccccc4)c4c(S(=O)(=O)[O-])cccc34)cc(S(=O)(=O)[O-])cc2c1.[Na+].[Na+].[Na+] [Acid Blue 92] | 57.60 k | 36 |  | 
O.O=C1c2ccccc2C(=O)c2c1cc(S(=O)(=O)[O-])c(O)c2O.[Na+] [Alizarin Red S monohydrate] | 335.10 k | 6 |  | 
Direct Violet 51 | 152.00 k | 14 |  | 
